The values that follow come from PMC6017538.

By UniProt entry, the sequences of proteins in these tests, tags left out.
UniProt A0QS98: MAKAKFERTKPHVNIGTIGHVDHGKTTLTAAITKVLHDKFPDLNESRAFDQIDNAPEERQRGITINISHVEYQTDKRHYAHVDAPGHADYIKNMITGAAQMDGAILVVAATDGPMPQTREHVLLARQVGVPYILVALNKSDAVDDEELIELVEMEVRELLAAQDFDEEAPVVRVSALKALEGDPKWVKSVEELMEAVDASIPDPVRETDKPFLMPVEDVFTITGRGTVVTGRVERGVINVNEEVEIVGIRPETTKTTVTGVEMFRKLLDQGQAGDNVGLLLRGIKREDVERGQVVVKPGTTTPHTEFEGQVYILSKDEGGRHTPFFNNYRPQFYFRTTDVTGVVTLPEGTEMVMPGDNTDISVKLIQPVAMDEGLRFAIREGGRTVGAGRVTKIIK

These are yes or no findings as the source states them, for the method shown. Binding seen in cells or lysates may run through a third protein. These calls come from enrichment with a bait or labelling near it, and not all partners need be listed.

For the test, the target named is T1, carboxypeptidase coded by Rv3627c (UniProt O06380).
T1 sequence: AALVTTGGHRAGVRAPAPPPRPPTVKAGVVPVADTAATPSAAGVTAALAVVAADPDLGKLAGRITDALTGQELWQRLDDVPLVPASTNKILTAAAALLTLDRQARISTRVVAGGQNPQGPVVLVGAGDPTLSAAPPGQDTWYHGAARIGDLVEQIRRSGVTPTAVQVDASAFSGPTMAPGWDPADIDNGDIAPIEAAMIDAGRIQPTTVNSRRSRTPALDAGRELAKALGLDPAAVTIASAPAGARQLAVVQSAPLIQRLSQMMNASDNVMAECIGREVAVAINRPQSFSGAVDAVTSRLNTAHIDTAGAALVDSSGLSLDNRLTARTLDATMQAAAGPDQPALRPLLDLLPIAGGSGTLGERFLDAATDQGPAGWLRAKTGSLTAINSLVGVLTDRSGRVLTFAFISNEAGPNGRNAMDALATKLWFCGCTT
As to the kind of experiment: affinity purification with mass spectrometry.

“elongation factor Tu (MSMEG_1401, tuf) (from UniProt A0QS98 1-396)”: the binding result is recorded as “binds”.
